Reference: the supplement of paper PMC12823440, “Inhibitors supercharge kinase turnover through native proteolytic circuits” (Nature, 2025)
Counter-ions that a name gives are not always drawn. Some of the results follow. The calls rarely recur for the same compound in another form.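 Kinases, fused to nanoluciferase, were expressed in K562 cells; luminescence was measured every 4 h from 2 to 18 h as percent of control (DMSO = 100%, positive control = 0%). A time point is decreased if signal falls significantly (2 sigma). Hits were called by the authors by a rule that is not shown; the count of time points alone does not decide it.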

Chains of the proteins cited; added tags and fusions are not shown. Lines headed by an entry give the natural chain unless they say otherwise; changes in a name come on top.
UniProt Q9Y616: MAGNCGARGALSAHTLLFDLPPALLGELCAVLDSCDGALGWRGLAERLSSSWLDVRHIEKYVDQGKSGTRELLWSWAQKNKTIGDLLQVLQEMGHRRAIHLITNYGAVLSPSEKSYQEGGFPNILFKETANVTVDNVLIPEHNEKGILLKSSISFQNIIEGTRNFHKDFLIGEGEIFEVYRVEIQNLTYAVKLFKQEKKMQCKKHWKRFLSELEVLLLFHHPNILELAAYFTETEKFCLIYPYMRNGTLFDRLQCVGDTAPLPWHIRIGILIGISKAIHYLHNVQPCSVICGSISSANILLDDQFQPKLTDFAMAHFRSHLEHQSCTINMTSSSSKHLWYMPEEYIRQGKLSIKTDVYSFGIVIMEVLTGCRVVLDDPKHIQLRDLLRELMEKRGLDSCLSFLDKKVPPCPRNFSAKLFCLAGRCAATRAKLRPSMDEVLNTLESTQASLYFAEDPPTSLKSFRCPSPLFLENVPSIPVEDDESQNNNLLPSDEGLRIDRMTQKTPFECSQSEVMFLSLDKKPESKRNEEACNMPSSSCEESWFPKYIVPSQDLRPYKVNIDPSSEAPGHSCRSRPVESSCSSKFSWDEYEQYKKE
UniProt P06239: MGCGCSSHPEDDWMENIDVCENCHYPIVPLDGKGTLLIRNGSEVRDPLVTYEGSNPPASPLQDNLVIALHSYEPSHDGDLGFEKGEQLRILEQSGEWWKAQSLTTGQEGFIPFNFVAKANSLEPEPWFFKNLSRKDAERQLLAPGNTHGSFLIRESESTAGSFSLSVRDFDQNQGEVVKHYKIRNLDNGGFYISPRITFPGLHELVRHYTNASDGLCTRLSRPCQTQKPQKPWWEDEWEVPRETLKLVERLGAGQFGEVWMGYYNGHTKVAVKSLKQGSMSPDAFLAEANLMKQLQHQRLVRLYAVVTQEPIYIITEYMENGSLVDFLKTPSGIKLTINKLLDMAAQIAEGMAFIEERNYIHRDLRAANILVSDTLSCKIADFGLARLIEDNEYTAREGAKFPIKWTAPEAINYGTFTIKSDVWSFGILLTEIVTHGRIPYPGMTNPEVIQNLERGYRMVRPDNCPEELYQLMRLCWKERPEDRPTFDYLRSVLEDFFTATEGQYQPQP
UniProt P07948: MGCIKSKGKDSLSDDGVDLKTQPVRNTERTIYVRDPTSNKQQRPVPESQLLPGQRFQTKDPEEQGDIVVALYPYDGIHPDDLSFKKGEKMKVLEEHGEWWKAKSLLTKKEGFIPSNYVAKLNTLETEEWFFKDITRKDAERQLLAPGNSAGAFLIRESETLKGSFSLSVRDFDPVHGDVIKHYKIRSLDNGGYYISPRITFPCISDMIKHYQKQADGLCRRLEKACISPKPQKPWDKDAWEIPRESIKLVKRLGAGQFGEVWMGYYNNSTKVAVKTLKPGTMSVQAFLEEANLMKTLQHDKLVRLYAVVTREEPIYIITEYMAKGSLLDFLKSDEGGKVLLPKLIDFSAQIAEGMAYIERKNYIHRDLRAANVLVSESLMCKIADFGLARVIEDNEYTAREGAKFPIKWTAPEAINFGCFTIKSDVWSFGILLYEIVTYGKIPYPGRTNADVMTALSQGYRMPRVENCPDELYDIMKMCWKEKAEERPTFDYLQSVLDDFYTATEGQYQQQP
UniProt Q12851: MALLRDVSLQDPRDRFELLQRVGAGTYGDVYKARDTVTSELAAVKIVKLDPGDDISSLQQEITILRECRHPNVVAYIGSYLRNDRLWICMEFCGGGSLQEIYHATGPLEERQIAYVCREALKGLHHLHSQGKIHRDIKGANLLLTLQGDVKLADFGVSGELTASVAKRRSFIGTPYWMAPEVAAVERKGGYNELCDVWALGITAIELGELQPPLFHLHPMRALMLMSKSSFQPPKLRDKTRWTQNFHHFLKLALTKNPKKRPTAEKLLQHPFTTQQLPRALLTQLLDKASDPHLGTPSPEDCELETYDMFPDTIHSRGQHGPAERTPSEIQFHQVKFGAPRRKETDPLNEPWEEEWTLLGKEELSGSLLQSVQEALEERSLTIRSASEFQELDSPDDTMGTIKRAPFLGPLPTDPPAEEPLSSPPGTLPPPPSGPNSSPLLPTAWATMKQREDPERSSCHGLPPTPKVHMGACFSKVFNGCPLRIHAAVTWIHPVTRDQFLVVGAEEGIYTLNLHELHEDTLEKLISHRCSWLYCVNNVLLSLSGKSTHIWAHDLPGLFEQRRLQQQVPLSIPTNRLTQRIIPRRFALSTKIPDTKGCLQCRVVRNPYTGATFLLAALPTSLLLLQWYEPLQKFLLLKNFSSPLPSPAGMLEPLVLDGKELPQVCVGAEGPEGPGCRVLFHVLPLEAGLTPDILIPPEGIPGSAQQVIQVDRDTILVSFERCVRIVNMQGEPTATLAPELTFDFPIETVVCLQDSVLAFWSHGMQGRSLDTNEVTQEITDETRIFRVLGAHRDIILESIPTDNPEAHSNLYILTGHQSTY
UniProt P28482, whole entry: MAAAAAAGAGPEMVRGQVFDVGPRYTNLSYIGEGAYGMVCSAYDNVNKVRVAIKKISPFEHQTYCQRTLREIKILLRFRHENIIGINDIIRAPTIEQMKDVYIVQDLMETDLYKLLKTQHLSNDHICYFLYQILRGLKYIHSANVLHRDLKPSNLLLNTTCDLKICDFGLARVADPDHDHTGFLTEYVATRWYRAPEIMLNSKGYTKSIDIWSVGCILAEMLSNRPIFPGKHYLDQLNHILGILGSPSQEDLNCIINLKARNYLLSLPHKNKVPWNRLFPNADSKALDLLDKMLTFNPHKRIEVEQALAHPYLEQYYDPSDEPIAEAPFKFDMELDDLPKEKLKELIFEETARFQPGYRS
UniProt P31152, whole entry: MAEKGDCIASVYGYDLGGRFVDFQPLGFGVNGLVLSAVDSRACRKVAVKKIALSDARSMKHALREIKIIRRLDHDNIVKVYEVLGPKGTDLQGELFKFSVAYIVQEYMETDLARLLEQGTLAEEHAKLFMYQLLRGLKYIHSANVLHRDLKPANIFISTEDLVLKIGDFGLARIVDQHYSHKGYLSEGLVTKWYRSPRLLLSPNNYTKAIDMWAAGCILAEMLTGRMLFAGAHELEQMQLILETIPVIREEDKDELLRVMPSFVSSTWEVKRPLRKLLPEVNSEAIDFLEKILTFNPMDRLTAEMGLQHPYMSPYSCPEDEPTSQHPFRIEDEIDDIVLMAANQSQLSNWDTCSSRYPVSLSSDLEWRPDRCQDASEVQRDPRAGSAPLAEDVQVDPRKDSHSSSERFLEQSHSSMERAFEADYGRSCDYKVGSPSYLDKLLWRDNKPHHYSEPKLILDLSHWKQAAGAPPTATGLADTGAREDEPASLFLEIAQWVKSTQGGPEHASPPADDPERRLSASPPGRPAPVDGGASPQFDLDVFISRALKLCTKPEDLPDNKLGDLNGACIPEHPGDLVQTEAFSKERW
UniProt P49137, whole entry, looked up: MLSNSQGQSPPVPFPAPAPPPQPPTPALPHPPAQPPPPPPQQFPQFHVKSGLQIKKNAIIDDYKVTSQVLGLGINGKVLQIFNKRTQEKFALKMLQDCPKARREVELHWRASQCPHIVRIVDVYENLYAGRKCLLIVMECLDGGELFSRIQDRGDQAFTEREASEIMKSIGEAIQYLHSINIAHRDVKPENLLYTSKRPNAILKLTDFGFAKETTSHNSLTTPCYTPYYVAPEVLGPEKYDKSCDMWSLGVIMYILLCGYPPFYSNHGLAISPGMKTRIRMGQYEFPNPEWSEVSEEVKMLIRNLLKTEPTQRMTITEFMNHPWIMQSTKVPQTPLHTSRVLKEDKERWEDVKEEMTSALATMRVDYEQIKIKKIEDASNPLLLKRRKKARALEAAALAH
UniProt Q9BUB5: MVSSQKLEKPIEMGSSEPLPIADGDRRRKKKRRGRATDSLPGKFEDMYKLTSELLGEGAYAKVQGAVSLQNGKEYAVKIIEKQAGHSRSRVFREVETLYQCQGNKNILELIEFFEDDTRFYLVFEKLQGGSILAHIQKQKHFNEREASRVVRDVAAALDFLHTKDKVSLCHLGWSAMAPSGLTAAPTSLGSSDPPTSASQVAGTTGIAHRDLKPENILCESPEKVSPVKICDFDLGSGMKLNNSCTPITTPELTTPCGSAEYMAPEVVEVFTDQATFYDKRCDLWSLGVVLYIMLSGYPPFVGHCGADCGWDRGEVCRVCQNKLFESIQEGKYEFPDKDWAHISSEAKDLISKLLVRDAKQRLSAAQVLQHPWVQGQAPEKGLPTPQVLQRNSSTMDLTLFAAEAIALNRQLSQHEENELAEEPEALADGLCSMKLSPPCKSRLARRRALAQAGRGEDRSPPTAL
UniProt Q16288, whole entry, looked up: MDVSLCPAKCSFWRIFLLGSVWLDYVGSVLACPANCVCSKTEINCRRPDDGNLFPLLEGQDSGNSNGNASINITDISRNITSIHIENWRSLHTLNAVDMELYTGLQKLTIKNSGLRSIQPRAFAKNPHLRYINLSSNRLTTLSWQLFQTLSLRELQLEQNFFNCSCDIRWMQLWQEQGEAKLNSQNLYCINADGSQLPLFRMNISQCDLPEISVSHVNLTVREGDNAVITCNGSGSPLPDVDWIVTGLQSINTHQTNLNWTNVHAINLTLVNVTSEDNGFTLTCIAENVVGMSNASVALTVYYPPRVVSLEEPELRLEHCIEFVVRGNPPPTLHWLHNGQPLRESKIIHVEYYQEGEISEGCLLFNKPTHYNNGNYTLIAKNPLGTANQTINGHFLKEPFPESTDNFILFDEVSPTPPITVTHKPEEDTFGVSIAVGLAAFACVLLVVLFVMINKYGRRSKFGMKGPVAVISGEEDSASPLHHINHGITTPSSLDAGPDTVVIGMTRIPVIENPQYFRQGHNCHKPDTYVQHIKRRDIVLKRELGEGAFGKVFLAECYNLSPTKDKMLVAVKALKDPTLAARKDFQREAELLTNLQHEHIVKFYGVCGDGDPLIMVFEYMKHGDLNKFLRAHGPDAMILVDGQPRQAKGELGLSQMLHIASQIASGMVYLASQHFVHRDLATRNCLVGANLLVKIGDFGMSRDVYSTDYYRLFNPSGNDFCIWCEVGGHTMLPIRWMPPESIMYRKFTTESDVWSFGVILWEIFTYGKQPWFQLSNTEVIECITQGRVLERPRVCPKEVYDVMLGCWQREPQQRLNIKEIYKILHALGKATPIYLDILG
UniProt O96013: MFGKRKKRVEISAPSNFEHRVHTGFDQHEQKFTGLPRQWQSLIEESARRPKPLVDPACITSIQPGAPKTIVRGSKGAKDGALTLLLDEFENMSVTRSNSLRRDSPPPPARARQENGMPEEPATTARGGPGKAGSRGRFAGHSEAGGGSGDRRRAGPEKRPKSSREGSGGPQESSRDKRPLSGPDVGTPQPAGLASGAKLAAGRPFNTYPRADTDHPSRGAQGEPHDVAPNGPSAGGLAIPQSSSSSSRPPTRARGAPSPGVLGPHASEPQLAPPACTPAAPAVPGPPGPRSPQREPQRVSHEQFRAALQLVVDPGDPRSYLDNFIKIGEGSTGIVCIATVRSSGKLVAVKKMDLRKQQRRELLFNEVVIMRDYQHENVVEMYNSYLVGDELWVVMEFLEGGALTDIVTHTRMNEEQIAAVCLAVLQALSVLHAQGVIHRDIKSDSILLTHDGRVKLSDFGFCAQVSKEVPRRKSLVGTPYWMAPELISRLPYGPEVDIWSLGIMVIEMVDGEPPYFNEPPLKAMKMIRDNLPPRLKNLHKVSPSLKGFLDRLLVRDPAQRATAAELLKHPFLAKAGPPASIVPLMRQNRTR
UniProt Q96KB5: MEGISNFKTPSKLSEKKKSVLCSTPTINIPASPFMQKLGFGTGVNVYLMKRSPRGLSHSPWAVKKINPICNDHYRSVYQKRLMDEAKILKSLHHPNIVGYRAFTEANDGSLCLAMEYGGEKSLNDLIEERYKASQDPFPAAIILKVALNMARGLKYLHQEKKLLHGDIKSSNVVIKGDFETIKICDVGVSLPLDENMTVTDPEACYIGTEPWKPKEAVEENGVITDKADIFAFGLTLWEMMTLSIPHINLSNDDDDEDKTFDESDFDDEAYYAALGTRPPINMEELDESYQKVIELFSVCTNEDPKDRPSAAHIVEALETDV
UniProt Q15118, whole entry, looked up: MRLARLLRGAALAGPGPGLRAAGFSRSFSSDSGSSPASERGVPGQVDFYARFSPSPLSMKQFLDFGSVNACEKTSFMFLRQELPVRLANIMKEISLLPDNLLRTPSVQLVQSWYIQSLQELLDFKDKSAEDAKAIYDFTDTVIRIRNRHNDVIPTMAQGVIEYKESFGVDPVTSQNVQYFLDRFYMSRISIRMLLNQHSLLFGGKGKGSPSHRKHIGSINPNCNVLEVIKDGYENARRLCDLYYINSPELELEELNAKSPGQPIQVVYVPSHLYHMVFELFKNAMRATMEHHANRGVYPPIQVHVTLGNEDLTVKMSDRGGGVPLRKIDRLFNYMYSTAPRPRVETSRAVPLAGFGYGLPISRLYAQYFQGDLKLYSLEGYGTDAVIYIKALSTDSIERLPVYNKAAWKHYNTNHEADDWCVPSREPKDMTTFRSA

Tests used:
Assay in all cases: kinase-Nluc reporter destabilization hit call (1 = scored as downregulated) (binary); higher = compound decreases kinase abundance
Conditions in all cases: K562; 2-18 h
IRAK3 = IRAK3 (UniProt Q9Y616)
JAK1 = JAK1 (UniProt P23458)
LCK = LCK (UniProt P06239)
LIMK1 = LIMK1 (UniProt P53667)
LIMK2 = LIMK2 (UniProt P53671)
LMTK2 = LMTK2 (UniProt Q8IWU2)
LYN = LYN (UniProt P07948)
MAP2K1 = MAP2K1 (UniProt Q02750)
MAP2K2 = MAP2K2 (UniProt P36507)
MAP4K2 = MAP4K2 (UniProt Q12851)
MAPK1 = MAPK1 (UniProt P28482)
MAPK4 = MAPK4 (UniProt P31152)
MAPKAPK2 = MAPKAPK2 (UniProt P49137)
MKNK1 = MKNK1 (UniProt Q9BUB5)
NTRK2 = NTRK2 (UniProt Q16620)
NTRK3 = NTRK3 (UniProt Q16288)
PAK4 = PAK4 (UniProt O96013)
PBK = PBK (UniProt Q96KB5)
PDGFRB = PDGFRB (UniProt P09619)
PDK1 = PDK1 (UniProt Q15118)

Measured: kinase-Nluc reporter destabilization hit call

Oc1ccccc1C(=S)N1CCCC1 (10 µM)
inactive: IRAK3 = 0 | JAK1 = 0 | LCK 0 | LIMK1 = 0 | LIMK2 = 0 | LMTK2 = 0 | LYN 0 | MAP2K1 = 0 | MAP2K2 = 0 | MAP4K2 = 0 | MAPK1 = 0 | MAPK4 = 0 | MAPKAPK2 = 0 | MKNK1 = 0 | NTRK2 = 0 | NTRK3 = 0 | PAK4 = 0 | PBK 0 | PDGFRB 0 | PDK1 = 0

Nc1cc(C(F)(F)F)c(-c2nc(N3CCOCC3)nc(N3CCOCC3)n2)cn1 [Bimiralisib] (10 µM)
inactive: IRAK3 = 0 | JAK1 = 0 | LCK 0 | LIMK1 = 0 | LIMK2 = 0 | LMTK2 = 0 | LYN 0 | MAP2K1 = 0 | MAP2K2 = 0 | MAP4K2 = 0 | MAPK1 = 0 | MAPK4 = 0 | MAPKAPK2 = 0 | MKNK1 = 0 | NTRK2 = 0 | NTRK3 = 0 | PAK4 = 0 | PBK 0 | PDGFRB 0 | PDK1 = 0

CCc1cccc(CC)c1NC(=O)c1nn(C)c2c1CCc1cnc(Nc3ccc(C(=O)NC4CCN(C)CC4)cc3OC(F)(F)F)nc1-2 (2 µM)
inactive: IRAK3 = 0 | JAK1 = 0 | LCK 0 | LIMK1 = 0 | LIMK2 = 0 | LMTK2 = 0 | LYN 0 | MAP2K1 = 0 | MAP2K2 = 0 | MAP4K2 = 0 | MAPK1 = 0 | MAPK4 = 0 | MAPKAPK2 = 0 | MKNK1 = 0 | NTRK2 = 0 | NTRK3 = 0 | PAK4 = 0 | PBK 0 | PDGFRB 0 | PDK1 = 0

COc1c(O)cc2oc3cc(O)c(CC=C(C)C)c(O)c3c(=O)c2c1CCC(C)(C)O [Garcinone D] (2.5 µM)
inactive: IRAK3 = 0 | JAK1 = 0 | LCK 0 | LIMK1 = 0 | LIMK2 = 0 | LMTK2 = 0 | LYN 0 | MAP2K1 = 0 | MAP2K2 = 0 | MAP4K2 = 0 | MAPK1 = 0 | MAPK4 = 0 | MAPKAPK2 = 0 | MKNK1 = 0 | NTRK2 = 0 | NTRK3 = 0 | PAK4 = 0 | PBK 0 | PDGFRB 0 | PDK1 = 0

NC(=O)c1ccc(-c2cnn3ccc(NCc4cccnc4)nc23)cc1 (2.5 µM)
inactive: IRAK3 = 0 | JAK1 = 0 | LCK 0 | LIMK1 = 0 | LIMK2 = 0 | LMTK2 = 0 | LYN 0 | MAP2K1 = 0 | MAP2K2 = 0 | MAP4K2 = 0 | MAPK1 = 0 | MAPK4 = 0 | MAPKAPK2 = 0 | MKNK1 = 0 | NTRK2 = 0 | NTRK3 = 0 | PAK4 = 0 | PBK 0 | PDGFRB 0 | PDK1 = 0

Cc1cc2cc(Oc3ccnc(Nc4cccc(CS(=O)(=O)NCCN(C)C)c4)n3)ccc2[nH]1 [Sulfatinib] (10 µM)
inactive: IRAK3 = 0 | JAK1 = 0 | LCK 0 | LIMK1 = 0 | LIMK2 = 0 | LMTK2 = 0 | LYN 0 | MAP2K1 = 0 | MAP2K2 = 0 | MAP4K2 = 0 | MAPK1 = 0 | MAPK4 = 0 | MAPKAPK2 = 0 | MKNK1 = 0 | NTRK2 = 0 | NTRK3 = 0 | PAK4 = 0 | PBK 0 | PDGFRB 0 | PDK1 = 0

NCCCCCCNS(=O)(=O)c1cccc2c(Cl)cccc12 [W-7 (hydrochloride)] (10 µM)
inactive: IRAK3 = 0 | JAK1 = 0 | LCK 0 | LIMK1 = 0 | LIMK2 = 0 | LMTK2 = 0 | LYN 0 | MAP2K1 = 0 | MAP2K2 = 0 | MAP4K2 = 0 | MAPK1 = 0 | MAPK4 = 0 | MAPKAPK2 = 0 | MKNK1 = 0 | NTRK2 = 0 | NTRK3 = 0 | PAK4 = 0 | PBK 0 | PDGFRB 0 | PDK1 = 0

COc1cc(N2CCC(N3CCN(C)CC3)CC2)ccc1Nc1nc2c(c(Nc3ccccc3S(=O)(=O)NC(C)C)n1)CCN2 [Conteltinib] (10 µM)
inactive: IRAK3 = 0 | JAK1 = 0 | LCK 0 | LIMK1 = 0 | LIMK2 = 0 | LMTK2 = 0 | LYN 0 | MAP2K1 = 0 | MAP2K2 = 0 | MAP4K2 = 0 | MAPK1 = 0 | MAPK4 = 0 | MAPKAPK2 = 0 | MKNK1 = 0 | NTRK2 = 0 | NTRK3 = 0 | PAK4 = 0 | PBK 0 | PDGFRB 0 | PDK1 = 0

COc1nc(-c2cccc3c2OCCO3)ccc1Nc1ccc(CN(C)C)cc1 [RAS inhibitor Abd-7] (10 µM)
inactive: IRAK3 = 0 | JAK1 = 0 | LCK 0 | LIMK1 = 0 | LIMK2 = 0 | LMTK2 = 0 | LYN 0 | MAP2K1 = 0 | MAP2K2 = 0 | MAP4K2 = 0 | MAPK1 = 0 | MAPK4 = 0 | MAPKAPK2 = 0 | MKNK1 = 0 | NTRK2 = 0 | NTRK3 = 0 | PAK4 = 0 | PBK 0 | PDGFRB 0 | PDK1 = 0

O=C1NC(=O)C(=Cc2ccc3c(c2)OCO3)S1 (10 µM)
inactive: IRAK3 = 0 | JAK1 = 0 | LCK 0 | LIMK1 = 0 | LIMK2 = 0 | LMTK2 = 0 | LYN 0 | MAP2K1 = 0 | MAP2K2 = 0 | MAP4K2 = 0 | MAPK1 = 0 | MAPK4 = 0 | MAPKAPK2 = 0 | MKNK1 = 0 | NTRK2 = 0 | NTRK3 = 0 | PAK4 = 0 | PBK 0 | PDGFRB 0 | PDK1 = 0

CCCNC(=O)c1cn2ncnc(Nc3cc(C(=O)NC4CC4)ccc3C)c2c1C (10 µM)
inactive: IRAK3 = 0 | JAK1 = 0 | LCK 0 | LIMK1 = 0 | LIMK2 = 0 | LMTK2 = 0 | LYN 0 | MAP2K1 = 0 | MAP2K2 = 0 | MAP4K2 = 0 | MAPK1 = 0 | MAPK4 = 0 | MAPKAPK2 = 0 | MKNK1 = 0 | NTRK2 = 0 | NTRK3 = 0 | PAK4 = 0 | PBK 0 | PDGFRB 0 | PDK1 = 0

For convenience, 2 of the compounds above.
COc1cc(N2CCC(N3CCN(C)CC3)CC2)ccc1Nc1nc2c(c(Nc3ccccc3S(=O)(=O)NC(C)C)n1)CCN2 [Conteltinib] (10 µM)
inactive: IRAK3 = 0 | JAK1 = 0 | LCK 0 | LIMK1 = 0 | LIMK2 = 0 | LMTK2 = 0 | LYN 0 | MAP2K1 = 0 | MAP2K2 = 0 | MAP4K2 = 0 | MAPK1 = 0 | MAPK4 = 0 | MAPKAPK2 = 0 | MKNK1 = 0 | NTRK2 = 0 | NTRK3 = 0 | PAK4 = 0 | PBK 0 | PDGFRB 0 | PDK1 = 0

COc1nc(-c2cccc3c2OCCO3)ccc1Nc1ccc(CN(C)C)cc1 [RAS inhibitor Abd-7] (10 µM)
inactive: IRAK3 = 0 | JAK1 = 0 | LCK 0 | LIMK1 = 0 | LIMK2 = 0 | LMTK2 = 0 | LYN 0 | MAP2K1 = 0 | MAP2K2 = 0 | MAP4K2 = 0 | MAPK1 = 0 | MAPK4 = 0 | MAPKAPK2 = 0 | MKNK1 = 0 | NTRK2 = 0 | NTRK3 = 0 | PAK4 = 0 | PBK 0 | PDGFRB 0 | PDK1 = 0

Additional entries

Nc1cc(C(F)F)c(-c2nc(N3C4CCC3COC4)nc(N3C4CCC3COC4)n2)cn1 (2.5 µM)
inactive: IRAK3 = 0 | JAK1 = 0 | LCK 0 | LIMK1 = 0 | LIMK2 = 0 | LMTK2 = 0 | LYN 0 | MAP2K1 = 0 | MAP2K2 = 0 | MAP4K2 = 0 | MAPK1 = 0 | MAPK4 = 0 | MAPKAPK2 = 0 | MKNK1 = 0 | NTRK2 = 0 | NTRK3 = 0 | PAK4 = 0 | PBK 0 | PDGFRB 0 | PDK1 = 0

c1cc(-c2cnn3cc(-c4ccc(N5CCNCC5)cc4)cnc23)c2cccnc2c1 (2.5 µM)
inactive: IRAK3 = 0 | JAK1 = 0 | LCK 0 | LIMK1 = 0 | LIMK2 = 0 | LMTK2 = 0 | LYN 0 | MAP2K1 = 0 | MAP2K2 = 0 | MAP4K2 = 0 | MAPK1 = 0 | MAPK4 = 0 | MAPKAPK2 = 0 | MKNK1 = 0 | NTRK2 = 0 | NTRK3 = 0 | PAK4 = 0 | PBK 0 | PDGFRB 0 | PDK1 = 0

COC1(C(=O)N[C@@H](C)c2ccc(-n3cc(F)cn3)nc2)CCC(c2nc(C)cc(Nc3cc(C)[nH]n3)n2)CC1 (stereo partly drawn) [trans-Pralsetinib] (2.5 µM)
inactive: IRAK3 = 0 | JAK1 = 0 | LCK 0 | LIMK1 = 0 | LIMK2 = 0 | LMTK2 = 0 | LYN 0 | MAP2K1 = 0 | MAP2K2 = 0 | MAP4K2 = 0 | MAPK1 = 0 | MAPK4 = 0 | MAPKAPK2 = 0 | MKNK1 = 0 | NTRK2 = 0 | NTRK3 = 0 | PAK4 = 0 | PBK 0 | PDGFRB 0 | PDK1 = 0

Nc1[nH]c(=O)nc2c1ncn2[C@@H]1O[C@H](CO)[C@@H](O)[C@H]1O [Crotonoside] (10 µM)
inactive: IRAK3 = 0 | JAK1 = 0 | LCK 0 | LIMK1 = 0 | LIMK2 = 0 | LMTK2 = 0 | LYN 0 | MAP2K1 = 0 | MAP2K2 = 0 | MAP4K2 = 0 | MAPK1 = 0 | MAPK4 = 0 | MAPKAPK2 = 0 | MKNK1 = 0 | NTRK2 = 0 | NTRK3 = 0 | PAK4 = 0 | PBK 0 | PDGFRB 0 | PDK1 = 0

O=C(Nc1ccc(Cl)c(Cl)c1)Nc1ccc2nnsc2c1 (10 µM)
inactive: IRAK3 = 0 | JAK1 = 0 | LCK 0 | LIMK1 = 0 | LIMK2 = 0 | LMTK2 = 0 | LYN 0 | MAP2K1 = 0 | MAP2K2 = 0 | MAP4K2 = 0 | MAPK1 = 0 | MAPK4 = 0 | MAPKAPK2 = 0 | MKNK1 = 0 | NTRK2 = 0 | NTRK3 = 0 | PAK4 = 0 | PBK 0 | PDGFRB 0 | PDK1 = 0

COc1ccc(CCNc2ncc3c(=O)n(-c4cccc(F)c4)c(=O)[nH]c3n2)cc1OC (2 µM)
inactive: IRAK3 = 0 | JAK1 = 0 | LCK 0 | LIMK1 = 0 | LIMK2 = 0 | LMTK2 = 0 | LYN 0 | MAP2K1 = 0 | MAP2K2 = 0 | MAP4K2 = 0 | MAPK1 = 0 | MAPK4 = 0 | MAPKAPK2 = 0 | MKNK1 = 0 | NTRK2 = 0 | NTRK3 = 0 | PAK4 = 0 | PBK 0 | PDGFRB 0 | PDK1 = 0

Cc1cc(Nc2cc(CN3CCOCC3)c3nc(C)c(Cc4ccc(Cl)cc4F)n3n2)n[nH]1 [Gandotinib] (2.5 µM)
inactive: IRAK3 = 0 | JAK1 = 0 | LCK 0 | LIMK1 = 0 | LIMK2 = 0 | LMTK2 = 0 | LYN 0 | MAP2K1 = 0 | MAP2K2 = 0 | MAP4K2 = 0 | MAPK1 = 0 | MAPK4 = 0 | MAPKAPK2 = 0 | MKNK1 = 0 | NTRK2 = 0 | NTRK3 = 0 | PAK4 = 0 | PBK 0 | PDGFRB 0 | PDK1 = 0
